Test results published in publication PMC13247160.

The chains behind the UniProt entries cited, without tags or fusion partners.
UniProt Q92905: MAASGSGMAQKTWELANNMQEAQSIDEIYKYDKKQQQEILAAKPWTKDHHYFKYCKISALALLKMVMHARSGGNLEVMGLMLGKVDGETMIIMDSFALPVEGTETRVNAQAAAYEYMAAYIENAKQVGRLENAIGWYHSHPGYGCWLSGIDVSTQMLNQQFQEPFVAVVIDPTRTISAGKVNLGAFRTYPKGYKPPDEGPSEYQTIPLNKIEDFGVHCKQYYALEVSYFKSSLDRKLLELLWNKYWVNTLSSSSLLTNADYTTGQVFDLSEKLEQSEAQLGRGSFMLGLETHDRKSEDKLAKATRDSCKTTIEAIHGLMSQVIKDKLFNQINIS
UniProt Q13620: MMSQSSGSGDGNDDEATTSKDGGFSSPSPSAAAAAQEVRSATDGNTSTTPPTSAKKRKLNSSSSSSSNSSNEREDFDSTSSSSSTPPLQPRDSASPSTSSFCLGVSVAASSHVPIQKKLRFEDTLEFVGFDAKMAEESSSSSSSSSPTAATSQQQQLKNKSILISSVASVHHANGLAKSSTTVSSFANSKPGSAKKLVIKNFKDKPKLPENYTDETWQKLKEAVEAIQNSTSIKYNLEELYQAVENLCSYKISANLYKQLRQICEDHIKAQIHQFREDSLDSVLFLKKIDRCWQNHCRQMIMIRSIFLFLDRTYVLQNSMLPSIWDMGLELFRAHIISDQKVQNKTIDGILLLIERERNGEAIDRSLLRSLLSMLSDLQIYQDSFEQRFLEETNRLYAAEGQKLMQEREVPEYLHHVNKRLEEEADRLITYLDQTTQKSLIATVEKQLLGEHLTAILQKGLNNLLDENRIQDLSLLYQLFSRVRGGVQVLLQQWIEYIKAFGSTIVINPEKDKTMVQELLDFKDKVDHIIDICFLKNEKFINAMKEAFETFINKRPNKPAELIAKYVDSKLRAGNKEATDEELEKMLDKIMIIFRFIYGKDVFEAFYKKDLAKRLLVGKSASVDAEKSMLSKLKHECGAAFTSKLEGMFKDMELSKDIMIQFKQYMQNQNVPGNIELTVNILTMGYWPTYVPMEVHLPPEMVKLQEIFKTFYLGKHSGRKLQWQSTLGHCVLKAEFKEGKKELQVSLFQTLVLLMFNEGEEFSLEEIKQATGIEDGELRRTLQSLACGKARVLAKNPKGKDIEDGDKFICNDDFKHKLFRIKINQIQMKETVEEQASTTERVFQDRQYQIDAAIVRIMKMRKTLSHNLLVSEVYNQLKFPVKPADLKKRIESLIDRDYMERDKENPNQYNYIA

Molecular target: C-Jun activation domain-binding protein-1 (JAB1), FLAG-tagged (UniProt Q92905)
Assay: affinity purification with mass spectrometry; lysate of MDA-MB-231 cells (5 x 10^8) transfected with FLAG-tagged JAB1 loaded onto a FLAG column; complex eluted, SDS-PAGE, silver staining, mass spectrometry

CUL4B (Cullin 4B; endogenous, MDA-MB-231) (from UniProt Q13620 1-913)
binding: binds

These are yes or no findings as the source states them, for the method shown. In cells and extracts the contact can be indirect. These calls come from enrichment with a bait or labelling near it, and not all partners need be listed.
